# Laboratory results: PubChem BioAssay AID651660 (Broad Institute, 2012)
# Amino acid sequences for entries named in this document (tags omitted). A change or cut given only in a name is not applied to a line headed by its entry.
# UniProt P43351: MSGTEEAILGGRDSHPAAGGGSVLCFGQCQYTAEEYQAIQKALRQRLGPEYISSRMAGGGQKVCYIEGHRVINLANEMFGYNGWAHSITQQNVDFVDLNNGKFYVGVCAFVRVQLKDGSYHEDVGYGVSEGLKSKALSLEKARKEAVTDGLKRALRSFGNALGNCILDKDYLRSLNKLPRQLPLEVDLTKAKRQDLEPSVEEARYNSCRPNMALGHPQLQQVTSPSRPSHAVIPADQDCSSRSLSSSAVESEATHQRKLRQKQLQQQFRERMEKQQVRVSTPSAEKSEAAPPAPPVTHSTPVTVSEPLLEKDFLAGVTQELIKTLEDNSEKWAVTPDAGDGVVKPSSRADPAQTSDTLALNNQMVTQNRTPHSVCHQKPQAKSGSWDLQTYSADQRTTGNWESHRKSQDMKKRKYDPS
# Among all 1,900 compounds or so, about 15 (0.8%) were called active. The inconclusive results got no clear call from the source; some entries with a clear call stand among them for comparison.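 The calls were made as follows: active = every replicate shows at least 50% inhibition; inconclusive = mean inhibition at least 50% but some replicate below; inactive = the rest.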
# Target: DNA repair protein RAD52 homolog (Homo sapiens) (UniProt P43351)
# Assay: RAD52 ssDNA annealing inhibitors, primary screen, biochemical, FRET, single point (AID 651660);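 also: 0% = median of neutral control wells and 100% = median of positive control wells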
# Details: Recombinant RAD52 ssDNA annealing, FRET fluorescence, 30 min; at 18.7 µM; stronger effect = higher value
row,SMILES,inhibition
1,CC/C(=C(\c1ccc(O)cc1)c1ccc(OCCN(C)C)cc1)c1ccccc1,active: 76%
2,Fc1ccc(C(c2ccc(F)cc2)N2CCN(C/C=C/c3ccccc3)CC2)cc1,inconclusive: 54.1%
3,Cc1ccc(C2CC(=O)C(C=NCCN3CCN(CC(=O)Nc4cc(C)cc(C)c4)CC3)=C(O)C2)cc1 (stereo unspecified),inactive: -3.07%
4,COc1ccc2c(C=O)cn(C)c2c1,inactive: -1.85%
5,COc1c(O)ccc2c1CN1CCc3cc4c(cc3C1C2)OCO4 (stereo unspecified),inconclusive: 51.3%
6,NC(=O)[C@@H]1[C@@H]2C(=O)N(c3ccc(F)cc3)C(=O)[C@@H]2[C@H]2C=Cc3ccccc3N21,inactive: -124%
7,CN(C)CC/C=C1\c2ccccc2Sc2ccc(Cl)cc21,inconclusive: 52.2%
8,OCCOCCN1CCN(C(c2ccccc2)c2ccc(Cl)cc2)CC1 (stereo unspecified),inactive: 7.68%
9,CSc1ccc2c(c1)N(CCC1CCCCN1C)c1ccccc1S2 (stereo unspecified),active: 61.6%
10,CN(C)CCCN1c2ccccc2Sc2ccc(Cl)cc21,inconclusive: 51.1%
11,Cc1ccc2c(c1)C1CN(C)CCC1N2S(=O)(=O)c1ccc(Oc2ccc([N+](=O)[O-])cc2)cc1 (stereo unspecified),inconclusive: 53.2%

# Compounds above that have a carbonyl joined to an NH by a bond outside any ring, in the order listed:
row,SMILES,inhibition
3,Cc1ccc(C2CC(=O)C(C=NCCN3CCN(CC(=O)Nc4cc(C)cc(C)c4)CC3)=C(O)C2)cc1 (stereo unspecified),inactive: -3.07%
6,NC(=O)[C@@H]1[C@@H]2C(=O)N(c3ccc(F)cc3)C(=O)[C@@H]2[C@H]2C=Cc3ccccc3N21,inactive: -124%
